# Earlier results, collected in US20250059153A1, “BICYCLIC QUINONES, PHARMACEUTICAL COMPOSITIONS, AND THERAPEUTIC APPLICATIONS” (priority 2022, published 2025).
# Some results were stated once for a whole list of compounds, not compound by compound.
# Settings: including skin disorders, brain toxicity, and digestive system irritation; cited from earlier work
smiles,measurement,value
O=C(Cn1ccnc1[N+](=O)[O-])NCc1ccccc1 [benznidazole],"temporary side effects, share of people affected",up to 40%
